Measured values: patent US6420352B1, “Hair loss prevention” (priority 2000, dated 2002)

Assay: Testing of skin penetration enhancers

| Compound | suitability as penetration enhancer |
| --- | --- |
| dimethyl acetate | weak penetration enhancer |
| COC(C)=O [methyl acetate] | acceptable |
